According to PubChem BioAssay AID1508600 (Functional Genomics Laboratory (NCATS/FGL), 2020):
Hit rate of the full screen: of about 53,000 sequences, about 3,700 (7%) were called active.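 How the source made its calls: active means gene knockdowns whose robust z-score for IL-1 alpha signal is at least 2 or at most -2, so actives lie on both sides; inactive means the rest.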 The list shows a part of the results.

Assay: Components of the Cytosolic LPS Sensing Pathway: Gene Identification via Genome-wide siRNA Screen;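 further: robust z of the log signal after scaling to non-targeting control siRNA wells of the plate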
Settings: RAW264.7 macrophages, IL-1a HTRF, actives lie on both sides, screened at 100 nM (by protocol), cells primed 5 h with Pam3CSK4 first
Summary of the method: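 RAW264.7 mouse macrophages reverse-transfected with single siRNAs (100 nM final) for 48h, primed with Pam3CSK4 for 5 hours, then transfected with LipidA for 24 hour. Supernatant IL-1a read by HTRF; values normalized to negative-control median, log-transformed robust z-scores.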

| Sequence | z-score |
| --- | --- |
| CCCAGGAAGCCUUUGAUCUTT against Gmnn | inactive: 0.263 |
| GGAAAGUUCCAAGUUACCATT against Arl13b | inactive: 1.18 |
| CGGUAUUAGUAGCAAUGGUTT against Tmem45a2 | inactive: 1.6 |
| GCGAACUCGGGAAACAACUTT against Rnf4 | inactive: -0.0525 |
| GCACUCGAAAGCGAUGUAATT against 9130019P16Rik | inactive: -0.232 |
| GGAGGAACAGCUCAGAUGUTT against Olfr524 | inactive: 0.562 |
| GCGAACAUCCAGAGAAUGUTT against Mtcl1 | inactive: -0.719 |
| GGAGAGUGCAGUGAUUGCCTT against Mybpc1 | inactive: -1.23 |
| GGGUUUUGGAGACAGUAUUTT against 2700081O15Rik | inactive: 0.631 |
| GGCCAUGCUACAAGUUCAATT against Trem1 | inactive: 0.258 |
| CCGGGUAGCUACUGUUAUGTT against Olfr365 | inactive: -0.76 |
| CGAGACUAGAUUCGUGCAGTT against D930048N14Rik | inactive: 0.457 |
| GGUUCCACUAAUCUUUUUATT against Mark3 | inactive: 0.696 |
| GGAAACUUGCUCAAUUUCCTT against Sec22a | inactive: -0.782 |
| GGAGACUUUGACCAAAUUATT against Gm3579 | inactive: -1.15 |
| CCCUUUAUAUCGAUUUCGGTT against Spata2 | inactive: 0.85 |
| GGACAUAGACUUAAGUAGUTT against Casp8ap2 | inactive: 0.657 |
| UGAGGAGACUAUUUAUUAGTT against Olfr1318 | inactive: -1.57 |
| GGAAGACAUACUGUUGAAATT against Mettl23 | inactive: -0.147 |
| GGAUAUACACAACAGGCACTT against Tceal9 | inactive: 0.422 |
| GCCGGAUGAAAUAACCAAATT against Gid8 | inactive: -0.395 |
| GCUAGGUUCCAGCAAUUGCTT against Klf17 | inactive: 1.51 |

| Sequence | z-score |
| --- | --- |
| GGUUUGAUCUCAUUUUCCUTT against Mcm4 | active: 2.92 |
| GGAGCAGAGGCCAUGAGAATT against Pik3r4 | inactive: 0.191 |
| GCUUUUGGACUGAAUCUCATT against 2210016L21Rik | active: 2.78 |
| GGCCUUGGAGUAGCUUUGATT against Ints2 | inactive: 1.68 |
| GCAAGCUAUGGUACGCAGATT against Dapk2 | inactive: 0.489 |
| GCACAGCUUUUUGGAUCUGTT against Zfyve26 | inactive: -0.75 |
| GCUGAAGUGUGUCACACGUTT against Rtf2 | inactive: -0.134 |
| CCAUUUAAUCUGGCAGAGCTT against Kif11 | inactive: -0.651 |
| GCAGGACAAGGACAACACUTT against Dyrk2 | active: -2.1 |
| CGCAGAUGUGUUAACUAAATT against Mid1ip1 | inactive: 1.14 |
| GGCUCGGCUUUUGACACAUTT against Ormdl2 | inactive: 0.176 |
| GGUGGAUUUCUGUAAAUUCTT against Gm20735 | inactive: -0.302 |
| GAUUACUCCACCUAUCUCUTT against Rtl6 | inactive: 0.646 |
| GGAUAAUGCUCCAUCAUAGTT against Nab1 | inactive: -0.419 |
| GGACCUCUAAAAGGAAAAUTT against Tdrd7 | inactive: -1.35 |
| GCCUAAGUUCCCUUAUUAATT against Arfrp1 | inactive: 0.155 |
| GGGUGUCCACAAAAAUUCATT against Dip2b | inactive: 0.909 |
| GCUAACACCUCACAUCUGGTT against Adam1a | inactive: -0.173 |
| CCAACGCGUGUUAUAUGUGTT against Prep | inactive: 0.907 |
| GCAUCAACUGUUAGUAAAGTT against Agfg1 | inactive: -0.23 |
| GGAAGCCAUCUUUAUCCUGTT against Pole4 | inactive: -1.33 |
| GGCAGCAAAGUCAAGAUGUTT against Msgn1 | inactive: -1.82 |

| Sequence | z-score |
| --- | --- |
| CGAUGGGACCAAGAUUAGUTT against Vstm2a | inactive: 0.277 |
| GGGUUAAUGCAUCAUUUGATT against Mef2d | inactive: 0.681 |
| GCCAUCUGCCAGUAUACAATT against Gm5148 | inactive: -0.726 |
| GGCAUUUAAUAUCAGGUCATT against Zfp62 | inactive: 0.167 |
| CCCAAUGAACAAGCUUAAGTT against Eif3g | inactive: -1.19 |
| CCUCACUCCUUUCUGUAAATT against Mfsd4b5 | inactive: -0.61 |
| GCGUGAAAAUGGAUAUCUUTT against Stab1 | inactive: -0.141 |
| GGAAAAGAUGCCUGUAUUUTT against Sgcd | inactive: -0.422 |
| GGCAUCACGUCAGAGUACATT against Pea15b | inactive: -1.27 |
| GCCUUUGAGCUCAUCUAUATT against Ttll3 | inactive: 0.149 |
| GGGAACAAGACAACACAGCTT against Adam11 | active: 2.03 |
| GGACUAUGACCCAUAUAGUTT against Zc3h8 | inactive: 0.538 |
| GGAUGUUAAUGGAUUCACATT against Ptprt | inactive: -1.86 |
| GGACAUUAUCAAGUUUCUGTT against Fkbp3 | inactive: 0.525 |
| CCAAGACUGUGACAAGUUUTT against Ctsz | inactive: -0.557 |
| CCUCCUCCAAUUAAAGACATT against Med7 | inactive: -0.0133 |
| GGAAACGGUGCGACUUCAATT against Fam13c | inactive: -0.585 |
| GGCCUGAGGACAUUGAAUATT against Naa20 | inactive: 1.18 |
| CGAGCAUGCUAAAUAUAUUTT against Zfp516 | inactive: -0.247 |
| GGAAGCUGUAGAAACACAUTT against Nbn | inactive: 0.42 |
| GGCCCAUUGAUCUGUGAUATT against Klk1b8 | inactive: -0.526 |
| GCACUGAUGUAAGGUAACCTT against Prdm4 | active: 2.48 |

Single entries from the results shown:
Value of CCUCCUCCAAUUAAAGACATT against Med7 under z-score: inactive: -0.0133
Value of GGCCUGAGGACAUUGAAUATT against Naa20 under z-score: inactive: 1.18
Value of GGAAACGGUGCGACUUCAATT against Fam13c under z-score: inactive: -0.585
Value of GGCAUCACGUCAGAGUACATT against Pea15b under z-score: inactive: -1.27
Value of GGAUGUUAAUGGAUUCACATT against Ptprt under z-score: inactive: -1.86
Value of CCCAAUGAACAAGCUUAAGTT against Eif3g under z-score: inactive: -1.19

(list continues)

| Sequence | z-score |
| --- | --- |
| GCCUUAAGUGGAUUUAGGATT against H2ac8 | inactive: 1.79 |
| GGGAUUUAGCACAAGAUACTT against Brinp3 | inactive: 0.606 |
| GGACGUGCUGUAUUUCAAGTT against Gal3st1 | inactive: 0.162 |
| CCUUCAUUAACAGACUACUTT against Pias2 | inactive: -0.101 |
| CGUCUAUCUUGGAUUACUATT against Dll1 | active: 2.11 |
| GGAUAUUCUGGACCACUGATT against Myoz2 | inactive: -0.288 |
| GGCUGAAAAUGGGAAGCUUTT against Gm5069 | inactive: 0.0536 |
| GAGAGAUUGGUAUUCCUGCTT against Olfr578 | inactive: 0.516 |
| GGUACUAGAUUGGAUGUCATT against Slc39a14 | inactive: -0.363 |
| GGUGUCUUUUUUCCUCUUCTT against Adcy4 | inactive: 1.81 |
| GCUUACAUGCACUAGCCUGTT against Ric8a | inactive: 0.954 |
| GGAGAUCUCCAUCACACACTT against Rps6ka1 | inactive: 0.396 |
| GGAGACCACGUCCAACAAUTT against Sh3bp2 | inactive: -0.352 |
| GCGUGAUUUUCCCUUGAGGTT against Cyp3a16 | inactive: 0.0801 |
| GGAGAUGGCUUUGAUGCUGTT against Gnmt | inactive: 0.781 |
| GGUUUAUGAGUAACUGUCATT against Defb10 | inactive: -0.962 |
| CCGUCAUUGUCUUGGAAGCTT against Syt5 | inactive: -0.0794 |
| GCCAGCAAAAGACACAAUATT against Rspo2 | inactive: 1.04 |
| GCGAAGGCUAGAUGUAGUGTT against Emilin1 | inactive: -1.65 |
| GCUUGCUAAGAUUGAGUAUTT against Cerkl | inactive: -0.928 |
| CCCUAUGCAGGGCUCAAUATT against Ankk1 | inactive: -1.68 |
| GGCCUUUCAAGGAACCAAGTT against Psme3 | inactive: 0.561 |

| Sequence | z-score |
| --- | --- |
| CCACGGAUACUUUGAACAUTT against Tmem86a | inactive: 0.701 |
| GGGUCCACAUACAAUAAAGTT against Emc9 | inactive: 0.226 |
| CCCUAUUUGACAAAUUCCUTT against Cdo1 | inactive: 0.245 |
| CCACCAUGCUUCUAAGCCUTT against Ccdc63 | inactive: -1.61 |
| CCGAAUGUUUUCCCACCUGTT against Lgi2 | inactive: -0.169 |
| GGAGCUCUUGGAUAUAAAATT against Eif4enif1 | inactive: 0.223 |
| GAAAAUGGUCACUACUGAGTT against S100a8 | inactive: -0.0863 |
| CCCUAACAGAUCUCAUUGATT against Sh2d4b | inactive: 0.0921 |
| ACGAGGGCCUGAAAAACCUTT against Hbb-b2 | inactive: -0.933 |
| CGCACAGUACUUUUCUCCUTT against Rtn1 | inactive: -0.343 |
| GCUCUAUCGUCCAAGCUUUTT against Dazap2 | inactive: -0.117 |
| CCUACUCGUGUCGUGAUAATT against Rxrb | inactive: -0.841 |
| GGCCCUAUGAUGAACCUAATT against Calb2 | inactive: -0.231 |
| GCUGCUUUUUCAUUGUCACTT against Hcrtr1 | inactive: -0.778 |
| GCUCCUGUAGACAGGUUAGTT against Serac1 | inactive: -1.39 |
| GCCCAGCAAAACGAAAUACTT against Foxc2 | inactive: -0.751 |
| GGAGCUGAGCAACAUCACATT against Il13 | inactive: -1.35 |
| GGCGAAUUACUUGUGUUGUTT against Nectin3 | inactive: -0.306 |
